The test concerns the target T1, FLAG-Tagged murine NUAK1 WT (mouse) (UniProt Q641K5).
T1 sequence: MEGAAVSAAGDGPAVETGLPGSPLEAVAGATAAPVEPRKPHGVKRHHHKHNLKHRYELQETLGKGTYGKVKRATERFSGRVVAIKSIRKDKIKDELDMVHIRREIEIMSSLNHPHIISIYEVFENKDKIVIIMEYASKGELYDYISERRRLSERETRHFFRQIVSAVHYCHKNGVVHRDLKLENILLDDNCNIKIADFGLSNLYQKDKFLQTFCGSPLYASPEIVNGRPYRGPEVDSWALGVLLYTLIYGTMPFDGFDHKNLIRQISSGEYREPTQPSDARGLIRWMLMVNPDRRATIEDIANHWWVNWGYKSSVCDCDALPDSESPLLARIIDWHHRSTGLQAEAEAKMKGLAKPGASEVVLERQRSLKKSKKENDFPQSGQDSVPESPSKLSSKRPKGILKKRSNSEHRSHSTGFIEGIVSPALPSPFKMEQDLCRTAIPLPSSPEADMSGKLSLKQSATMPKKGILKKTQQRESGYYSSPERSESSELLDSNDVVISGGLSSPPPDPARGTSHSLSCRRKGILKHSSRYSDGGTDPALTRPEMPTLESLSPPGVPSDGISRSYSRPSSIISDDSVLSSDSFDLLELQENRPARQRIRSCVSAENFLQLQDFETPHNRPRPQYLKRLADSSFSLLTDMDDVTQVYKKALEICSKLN
Briefly: affinity purification with mass spectrometry; FLAG immunoprecipitation from nuclear and cytoplasmic extracts of iMEFs expressing FLAG-mNUAK1 WT or KR44/71AA (pBABE FLAG as control); MudPIT; n = 3.

Amino acid sequences for entries named in this document (tags omitted).
UniProt Q6QI06: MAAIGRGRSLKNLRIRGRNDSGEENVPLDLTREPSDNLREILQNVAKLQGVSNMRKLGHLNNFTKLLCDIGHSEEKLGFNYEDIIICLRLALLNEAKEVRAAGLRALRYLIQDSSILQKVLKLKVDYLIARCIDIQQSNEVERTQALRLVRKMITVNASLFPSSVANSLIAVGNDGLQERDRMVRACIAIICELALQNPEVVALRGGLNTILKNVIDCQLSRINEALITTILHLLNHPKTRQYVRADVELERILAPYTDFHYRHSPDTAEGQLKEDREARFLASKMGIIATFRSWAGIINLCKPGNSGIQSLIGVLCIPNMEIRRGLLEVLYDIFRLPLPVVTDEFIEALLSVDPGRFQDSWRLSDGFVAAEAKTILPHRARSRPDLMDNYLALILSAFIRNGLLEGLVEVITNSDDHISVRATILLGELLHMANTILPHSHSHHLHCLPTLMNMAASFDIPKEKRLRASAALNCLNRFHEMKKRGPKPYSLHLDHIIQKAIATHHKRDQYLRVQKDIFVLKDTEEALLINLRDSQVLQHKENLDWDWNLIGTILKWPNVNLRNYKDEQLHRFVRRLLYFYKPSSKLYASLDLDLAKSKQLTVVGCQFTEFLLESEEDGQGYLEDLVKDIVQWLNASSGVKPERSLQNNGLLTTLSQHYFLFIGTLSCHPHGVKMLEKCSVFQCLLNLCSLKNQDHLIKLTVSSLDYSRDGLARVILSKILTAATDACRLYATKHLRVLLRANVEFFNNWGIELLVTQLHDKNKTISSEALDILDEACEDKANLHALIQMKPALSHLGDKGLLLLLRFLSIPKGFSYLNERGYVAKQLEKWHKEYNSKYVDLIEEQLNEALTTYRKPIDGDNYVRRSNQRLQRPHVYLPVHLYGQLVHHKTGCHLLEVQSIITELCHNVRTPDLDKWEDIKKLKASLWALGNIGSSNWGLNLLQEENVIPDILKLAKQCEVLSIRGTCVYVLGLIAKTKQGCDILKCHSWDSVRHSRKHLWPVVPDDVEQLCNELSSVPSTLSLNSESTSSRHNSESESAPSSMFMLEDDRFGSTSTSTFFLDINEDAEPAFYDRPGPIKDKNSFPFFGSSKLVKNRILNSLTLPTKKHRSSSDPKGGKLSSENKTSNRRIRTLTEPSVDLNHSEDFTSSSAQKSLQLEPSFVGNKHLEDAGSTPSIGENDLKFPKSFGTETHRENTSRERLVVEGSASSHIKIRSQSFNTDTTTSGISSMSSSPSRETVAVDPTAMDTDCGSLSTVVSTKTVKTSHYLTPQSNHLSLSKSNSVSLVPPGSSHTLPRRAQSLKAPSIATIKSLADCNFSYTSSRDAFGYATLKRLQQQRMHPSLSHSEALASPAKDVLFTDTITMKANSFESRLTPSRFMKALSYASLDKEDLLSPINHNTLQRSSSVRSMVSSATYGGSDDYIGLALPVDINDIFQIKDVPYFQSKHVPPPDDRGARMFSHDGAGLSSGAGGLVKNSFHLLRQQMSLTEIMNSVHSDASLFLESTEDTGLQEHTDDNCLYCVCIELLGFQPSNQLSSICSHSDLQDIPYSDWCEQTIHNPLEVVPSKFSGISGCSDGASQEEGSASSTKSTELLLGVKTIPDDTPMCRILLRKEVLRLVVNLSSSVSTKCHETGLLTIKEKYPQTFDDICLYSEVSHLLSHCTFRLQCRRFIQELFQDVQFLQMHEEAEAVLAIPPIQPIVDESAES
UniProt Q8K4Q0: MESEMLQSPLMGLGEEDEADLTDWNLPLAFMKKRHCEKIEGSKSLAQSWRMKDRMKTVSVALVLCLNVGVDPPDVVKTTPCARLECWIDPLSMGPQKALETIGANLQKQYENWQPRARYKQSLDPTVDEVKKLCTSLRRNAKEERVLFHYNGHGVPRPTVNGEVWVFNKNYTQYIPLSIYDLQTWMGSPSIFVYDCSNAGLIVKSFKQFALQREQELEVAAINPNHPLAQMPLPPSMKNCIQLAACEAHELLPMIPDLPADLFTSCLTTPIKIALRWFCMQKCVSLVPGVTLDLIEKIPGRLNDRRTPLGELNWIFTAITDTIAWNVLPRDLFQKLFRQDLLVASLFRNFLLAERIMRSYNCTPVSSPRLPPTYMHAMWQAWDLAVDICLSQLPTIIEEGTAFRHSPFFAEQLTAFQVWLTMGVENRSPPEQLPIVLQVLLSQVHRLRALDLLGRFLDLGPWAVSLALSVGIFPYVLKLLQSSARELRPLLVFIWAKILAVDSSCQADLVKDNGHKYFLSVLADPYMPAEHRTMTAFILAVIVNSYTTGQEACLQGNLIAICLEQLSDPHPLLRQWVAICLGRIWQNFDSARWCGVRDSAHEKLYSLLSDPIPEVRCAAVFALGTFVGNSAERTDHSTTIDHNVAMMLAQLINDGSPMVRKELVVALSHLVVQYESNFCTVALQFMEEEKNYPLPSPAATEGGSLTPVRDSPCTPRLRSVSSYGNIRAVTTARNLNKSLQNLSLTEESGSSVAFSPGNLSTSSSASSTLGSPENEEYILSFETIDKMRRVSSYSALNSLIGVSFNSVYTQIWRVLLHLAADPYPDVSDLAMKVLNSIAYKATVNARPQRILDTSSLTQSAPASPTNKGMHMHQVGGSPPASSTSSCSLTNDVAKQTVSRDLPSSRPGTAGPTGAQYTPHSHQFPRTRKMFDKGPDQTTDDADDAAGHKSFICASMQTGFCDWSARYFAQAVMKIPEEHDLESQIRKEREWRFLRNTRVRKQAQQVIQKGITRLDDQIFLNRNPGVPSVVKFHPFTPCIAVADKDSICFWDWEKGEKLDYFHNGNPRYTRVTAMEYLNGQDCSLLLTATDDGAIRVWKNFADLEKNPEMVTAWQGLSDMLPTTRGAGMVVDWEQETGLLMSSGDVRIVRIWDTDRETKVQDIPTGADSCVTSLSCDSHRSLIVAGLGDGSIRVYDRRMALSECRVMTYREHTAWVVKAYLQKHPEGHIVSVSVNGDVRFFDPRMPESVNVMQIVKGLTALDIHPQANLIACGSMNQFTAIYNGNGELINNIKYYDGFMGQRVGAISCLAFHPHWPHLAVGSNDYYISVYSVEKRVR

No constants are given. Whether binding was seen depends on the method and setting. In cells and extracts the contact can be indirect. These calls come from enrichment with a bait or labelling near it, and not all partners need be listed. Where a sequence is shown, tags or fusion partners need not be part of it.

“Rictor (endogenous, iMEFs) (from UniProt Q6QI06 1-1708)”: the binding entry is “binds”.
Next, “Raptor (endogenous, iMEFs) (from UniProt Q8K4Q0 1-1335)”: “binds”.
